Data reported in article PMC5954019.
No constants are given. Whether binding was seen depends on the method and setting. In cells and extracts the contact can be indirect. Some results given as binding are weak or reduced against the parent protein; the word gives no strength. For some of these results: Tags and fused reporters may be left off the sequences shown.

Amino acid sequences for entries named in this document (tags omitted).
UniProt Q3UK78: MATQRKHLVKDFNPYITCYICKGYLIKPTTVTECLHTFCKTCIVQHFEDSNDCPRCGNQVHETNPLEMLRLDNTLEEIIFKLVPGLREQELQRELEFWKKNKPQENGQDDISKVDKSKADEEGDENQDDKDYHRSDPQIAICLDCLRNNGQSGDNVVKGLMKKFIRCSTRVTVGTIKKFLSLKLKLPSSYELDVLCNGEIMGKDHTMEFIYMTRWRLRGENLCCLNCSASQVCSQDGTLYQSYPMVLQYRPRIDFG
UniProt O95931: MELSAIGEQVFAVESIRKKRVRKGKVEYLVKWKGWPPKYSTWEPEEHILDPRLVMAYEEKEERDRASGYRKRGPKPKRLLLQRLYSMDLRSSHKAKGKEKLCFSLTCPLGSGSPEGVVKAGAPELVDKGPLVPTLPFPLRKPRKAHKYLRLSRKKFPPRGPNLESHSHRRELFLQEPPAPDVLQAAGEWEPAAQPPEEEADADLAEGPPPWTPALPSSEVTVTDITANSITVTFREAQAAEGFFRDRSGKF
UniProt Q8VDS3: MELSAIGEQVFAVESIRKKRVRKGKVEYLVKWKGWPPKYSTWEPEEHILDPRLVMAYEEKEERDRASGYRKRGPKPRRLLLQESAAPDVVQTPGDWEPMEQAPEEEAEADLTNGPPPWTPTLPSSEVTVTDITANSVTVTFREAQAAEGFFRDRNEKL

Key:
Flag-PCGF5 = Flag-PCGF5 (UniProt Q3UK78); experiment: co-IP; Flag co-IP from 293T cells transfected with Flag-PCGF5 or its deletion; Flag-tagged empty vector as control; Western blot
[1] = biological target: PCGF5 (endogenous, mESCs) (mouse (endogenous in mESCs)) (UniProt Q3UK78); experiment: co-sedimentation; whole cell extracts of mESCs on a 10-30% sucrose gradient, 247,605 x g, 4 °C, 16 h; fractions resolved on SDS-PAGE and immunoblotted
[2] = biological target: T1, GST-RING1B C-terminal domain (amino acids 94-336) (UniProt Q9CQJ4); experiment: pull-down; GST-RING1B fusion proteins on beads incubated with cell lysates of 293T cells overexpressing Flag-PCGF5; probed with anti-FLAG antibody by Western blot; only the target purified
T1 sequence: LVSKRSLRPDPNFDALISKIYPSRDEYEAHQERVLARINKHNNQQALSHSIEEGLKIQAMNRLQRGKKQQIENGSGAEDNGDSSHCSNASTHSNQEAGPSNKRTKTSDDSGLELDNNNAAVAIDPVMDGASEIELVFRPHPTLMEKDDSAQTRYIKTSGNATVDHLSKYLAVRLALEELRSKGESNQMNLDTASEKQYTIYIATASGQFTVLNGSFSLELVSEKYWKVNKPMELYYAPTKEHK

[3] = biological target: GST-RING1B ring finger domain (amino acids 49-95) (UniProt Q9CQJ4); experiment: as above

RING1B (from UniProt Q99496 1-336)
binding (Flag-PCGF5): binds

CBX7 (from UniProt O95931 1-251)
binding (Flag-PCGF5): no binding

CBX7 (endogenous, mESCs) (from UniProt Q8VDS3 1-158)
binding [1]: no binding

Flag-PCGF5 (from UniProt Q3UK78 1-256)
binding [2]: binds | binding [3]: binds

B1: RYBP (protein, UniProt Q8N488 1-228)
chain: MTMGDKKSPTRPKRQAKPAADEGFWDCSVCTFRNSAEAFKCSICDVRKGTSTRKPRINSQLVAQQVAQQYATPPPPKKEKKEKVEKQDKEKPEKDKEISPSVTKKNTNKKTKPKSDILKDPPSEANSIQSANATTKTSETNHTSRPRLKNVDRSTAQQLAVTVGNVTVIITDFKEKTRSSSTSSSTVTSSAGSEQQNQSSSGSESTDKGSSRSSTPKGDMSAVNDESF
binding (Flag-PCGF5): binds

B2: RYBP (endogenous, mESCs) (protein, UniProt Q8CCI5 1-228)
chain: MTMGDKKSPTRPKRQAKPAADEGFWDCSVCTFRNSAEAFKCSICDVRKGTSTRKPRINSQLVAQQVAQQYATPPPPKKEKKEKVEKPDKEKPEKDKDISPSVTKKNTNKKTKPKSDILKDPPSEANSIQSANATTKTSETNHTSRPRLKNVDRSTAQQLAVTVGNVTVIITDFKEKTRSSSTSSSTVTSSAGSEQQNQSSSGSESTDKGSSRSSTPKGDMSAVNDESF
binding [1]: binds
